The source of these data is article PMC2631193.

These are yes or no findings as the source states them, for the method shown. Binding seen in cells or lysates may run through a third protein. Some entries that bind do so weakly or less than the wild type. Sequences can lack the tags named with a protein.

For assay [1], the target named is T1, GFP–NDE1–SSSC (in vitro transcribed and translated) (human) (UniProt Q9NXR1).
T1 sequence: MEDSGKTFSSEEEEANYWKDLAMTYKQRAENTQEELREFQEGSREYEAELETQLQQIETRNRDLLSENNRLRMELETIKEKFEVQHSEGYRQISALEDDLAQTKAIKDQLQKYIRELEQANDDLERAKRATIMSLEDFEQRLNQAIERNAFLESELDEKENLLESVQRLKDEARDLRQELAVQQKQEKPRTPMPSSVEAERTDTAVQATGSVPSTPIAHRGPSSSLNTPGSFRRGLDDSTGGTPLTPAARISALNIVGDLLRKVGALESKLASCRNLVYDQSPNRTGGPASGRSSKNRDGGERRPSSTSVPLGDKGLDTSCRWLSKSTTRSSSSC
In words: co-IP; both proteins in vitro transcribed and translated; immunoprecipitation by the tag; control without the bait.

The target of a further assay is T2, V5–NDE1–SSSC (human) (UniProt Q9NXR1).
T2 sequence: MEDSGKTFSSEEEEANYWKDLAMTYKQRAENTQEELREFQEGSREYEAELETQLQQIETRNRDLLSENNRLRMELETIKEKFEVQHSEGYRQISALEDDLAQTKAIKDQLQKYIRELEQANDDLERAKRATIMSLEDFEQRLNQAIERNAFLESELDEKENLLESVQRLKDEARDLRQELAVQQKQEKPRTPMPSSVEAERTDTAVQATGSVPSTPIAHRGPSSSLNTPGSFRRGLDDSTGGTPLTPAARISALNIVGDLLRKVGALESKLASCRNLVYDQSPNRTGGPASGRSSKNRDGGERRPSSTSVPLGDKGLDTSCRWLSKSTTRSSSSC
Put plainly: co-IP; tagged proteins (V5, GFP, FLAG) over-expressed in transfected COS7 cells; immunoprecipitation by the tag from cell lysates; Western blot.

The target in assay [2] is T3, V5–NDE1–SSSC (in vitro transcribed and translated) (human) (UniProt Q9NXR1).
T3 sequence: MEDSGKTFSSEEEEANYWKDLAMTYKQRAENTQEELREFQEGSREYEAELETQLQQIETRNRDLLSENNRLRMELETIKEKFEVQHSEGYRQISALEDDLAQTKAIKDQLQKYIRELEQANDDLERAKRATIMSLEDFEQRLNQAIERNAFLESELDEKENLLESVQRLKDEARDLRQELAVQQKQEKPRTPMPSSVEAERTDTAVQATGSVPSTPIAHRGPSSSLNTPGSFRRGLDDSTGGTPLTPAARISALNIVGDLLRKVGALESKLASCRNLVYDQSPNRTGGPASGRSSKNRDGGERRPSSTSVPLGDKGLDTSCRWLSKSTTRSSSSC
Put plainly: co-IP; both proteins in vitro transcribed and translated; immunoprecipitation by the tag; control without the bait.

The next assay concerns the target T4, FLAG–DISC1 (UniProt Q9NRI5).
T4 sequence: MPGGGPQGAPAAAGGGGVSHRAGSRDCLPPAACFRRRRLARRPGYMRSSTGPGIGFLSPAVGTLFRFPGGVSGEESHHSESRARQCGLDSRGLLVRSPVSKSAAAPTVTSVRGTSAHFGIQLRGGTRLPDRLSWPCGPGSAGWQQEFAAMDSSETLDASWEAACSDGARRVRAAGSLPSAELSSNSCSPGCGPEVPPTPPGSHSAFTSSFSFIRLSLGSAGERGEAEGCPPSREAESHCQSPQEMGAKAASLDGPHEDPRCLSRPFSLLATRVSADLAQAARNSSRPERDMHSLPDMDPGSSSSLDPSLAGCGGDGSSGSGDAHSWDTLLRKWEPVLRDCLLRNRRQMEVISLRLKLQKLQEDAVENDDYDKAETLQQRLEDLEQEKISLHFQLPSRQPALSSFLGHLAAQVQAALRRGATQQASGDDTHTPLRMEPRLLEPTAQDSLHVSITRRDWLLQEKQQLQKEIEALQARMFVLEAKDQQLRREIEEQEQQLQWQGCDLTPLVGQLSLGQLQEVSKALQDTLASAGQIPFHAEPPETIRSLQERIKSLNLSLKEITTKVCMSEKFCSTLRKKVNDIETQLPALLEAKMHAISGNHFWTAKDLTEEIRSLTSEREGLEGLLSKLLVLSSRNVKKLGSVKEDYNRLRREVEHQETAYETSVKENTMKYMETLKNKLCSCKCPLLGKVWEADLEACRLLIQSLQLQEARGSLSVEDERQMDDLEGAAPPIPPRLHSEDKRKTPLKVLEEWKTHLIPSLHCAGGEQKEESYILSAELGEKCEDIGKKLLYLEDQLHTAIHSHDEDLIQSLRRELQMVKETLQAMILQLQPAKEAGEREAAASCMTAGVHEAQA
Put plainly: co-IP; tagged proteins (V5, GFP, FLAG) over-expressed in transfected COS7 cells; immunoprecipitation by the tag from cell lysates; Western blot. On the technique in general: Immunoblotting shows a protein as a band on a membrane.

B1: V5–DISC1 (in vitro transcribed and translated) (protein, UniProt Q9NRI5 1-854)
chain: MPGGGPQGAPAAAGGGGVSHRAGSRDCLPPAACFRRRRLARRPGYMRSSTGPGIGFLSPAVGTLFRFPGGVSGEESHHSESRARQCGLDSRGLLVRSPVSKSAAAPTVTSVRGTSAHFGIQLRGGTRLPDRLSWPCGPGSAGWQQEFAAMDSSETLDASWEAACSDGARRVRAAGSLPSAELSSNSCSPGCGPEVPPTPPGSHSAFTSSFSFIRLSLGSAGERGEAEGCPPSREAESHCQSPQEMGAKAASLDGPHEDPRCLSRPFSLLATRVSADLAQAARNSSRPERDMHSLPDMDPGSSSSLDPSLAGCGGDGSSGSGDAHSWDTLLRKWEPVLRDCLLRNRRQMEVISLRLKLQKLQEDAVENDDYDKAETLQQRLEDLEQEKISLHFQLPSRQPALSSFLGHLAAQVQAALRRGATQQASGDDTHTPLRMEPRLLEPTAQDSLHVSITRRDWLLQEKQQLQKEIEALQARMFVLEAKDQQLRREIEEQEQQLQWQGCDLTPLVGQLSLGQLQEVSKALQDTLASAGQIPFHAEPPETIRSLQERIKSLNLSLKEITTKVCMSEKFCSTLRKKVNDIETQLPALLEAKMHAISGNHFWTAKDLTEEIRSLTSEREGLEGLLSKLLVLSSRNVKKLGSVKEDYNRLRREVEHQETAYETSVKENTMKYMETLKNKLCSCKCPLLGKVWEADLEACRLLIQSLQLQEARGSLSVEDERQMDDLEGAAPPIPPRLHSEDKRKTPLKVLEEWKTHLIPSLHCAGGEQKEESYILSAELGEKCEDIGKKLLYLEDQLHTAIHSHDEDLIQSLRRELQMVKETLQAMILQLQPAKEAGEREAAASCMTAGVHEAQA
For B1, the binding entry in assay [1] was “binds”.

B2: GFP–NDE1–SSSC (protein, UniProt Q9NXR1 1-335)
chain: MEDSGKTFSSEEEEANYWKDLAMTYKQRAENTQEELREFQEGSREYEAELETQLQQIETRNRDLLSENNRLRMELETIKEKFEVQHSEGYRQISALEDDLAQTKAIKDQLQKYIRELEQANDDLERAKRATIMSLEDFEQRLNQAIERNAFLESELDEKENLLESVQRLKDEARDLRQELAVQQKQEKPRTPMPSSVEAERTDTAVQATGSVPSTPIAHRGPSSSLNTPGSFRRGLDDSTGGTPLTPAARISALNIVGDLLRKVGALESKLASCRNLVYDQSPNRTGGPASGRSSKNRDGGERRPSSTSVPLGDKGLDTSCRWLSKSTTRSSSSC
With B2, the binding result with V5–NDE1–SSSC (human) is listed as “binds”.

B3: GFP–NDE1–SSSC (in vitro transcribed and translated) (protein, UniProt Q9NXR1 1-335)
chain: MEDSGKTFSSEEEEANYWKDLAMTYKQRAENTQEELREFQEGSREYEAELETQLQQIETRNRDLLSENNRLRMELETIKEKFEVQHSEGYRQISALEDDLAQTKAIKDQLQKYIRELEQANDDLERAKRATIMSLEDFEQRLNQAIERNAFLESELDEKENLLESVQRLKDEARDLRQELAVQQKQEKPRTPMPSSVEAERTDTAVQATGSVPSTPIAHRGPSSSLNTPGSFRRGLDDSTGGTPLTPAARISALNIVGDLLRKVGALESKLASCRNLVYDQSPNRTGGPASGRSSKNRDGGERRPSSTSVPLGDKGLDTSCRWLSKSTTRSSSSC
B3: the binding entry in assay [2] is reported as “binds”.

B4: V5–NDE1–SSSC (protein, UniProt Q9NXR1 1-335)
chain: MEDSGKTFSSEEEEANYWKDLAMTYKQRAENTQEELREFQEGSREYEAELETQLQQIETRNRDLLSENNRLRMELETIKEKFEVQHSEGYRQISALEDDLAQTKAIKDQLQKYIRELEQANDDLERAKRATIMSLEDFEQRLNQAIERNAFLESELDEKENLLESVQRLKDEARDLRQELAVQQKQEKPRTPMPSSVEAERTDTAVQATGSVPSTPIAHRGPSSSLNTPGSFRRGLDDSTGGTPLTPAARISALNIVGDLLRKVGALESKLASCRNLVYDQSPNRTGGPASGRSSKNRDGGERRPSSTSVPLGDKGLDTSCRWLSKSTTRSSSSC
Regarding B4, the binding entry in the assay with FLAG–DISC1 is listed as “binds”.
